Measured values: paper PMC3179509
These are yes or no findings as the source states them, for the method shown. Binding seen in cells or lysates may run through a third protein. Some binding calls cover weakened binding; strength is not graded here.

The chains behind the UniProt entries cited, without tags or fusion partners.
UniProt O75376: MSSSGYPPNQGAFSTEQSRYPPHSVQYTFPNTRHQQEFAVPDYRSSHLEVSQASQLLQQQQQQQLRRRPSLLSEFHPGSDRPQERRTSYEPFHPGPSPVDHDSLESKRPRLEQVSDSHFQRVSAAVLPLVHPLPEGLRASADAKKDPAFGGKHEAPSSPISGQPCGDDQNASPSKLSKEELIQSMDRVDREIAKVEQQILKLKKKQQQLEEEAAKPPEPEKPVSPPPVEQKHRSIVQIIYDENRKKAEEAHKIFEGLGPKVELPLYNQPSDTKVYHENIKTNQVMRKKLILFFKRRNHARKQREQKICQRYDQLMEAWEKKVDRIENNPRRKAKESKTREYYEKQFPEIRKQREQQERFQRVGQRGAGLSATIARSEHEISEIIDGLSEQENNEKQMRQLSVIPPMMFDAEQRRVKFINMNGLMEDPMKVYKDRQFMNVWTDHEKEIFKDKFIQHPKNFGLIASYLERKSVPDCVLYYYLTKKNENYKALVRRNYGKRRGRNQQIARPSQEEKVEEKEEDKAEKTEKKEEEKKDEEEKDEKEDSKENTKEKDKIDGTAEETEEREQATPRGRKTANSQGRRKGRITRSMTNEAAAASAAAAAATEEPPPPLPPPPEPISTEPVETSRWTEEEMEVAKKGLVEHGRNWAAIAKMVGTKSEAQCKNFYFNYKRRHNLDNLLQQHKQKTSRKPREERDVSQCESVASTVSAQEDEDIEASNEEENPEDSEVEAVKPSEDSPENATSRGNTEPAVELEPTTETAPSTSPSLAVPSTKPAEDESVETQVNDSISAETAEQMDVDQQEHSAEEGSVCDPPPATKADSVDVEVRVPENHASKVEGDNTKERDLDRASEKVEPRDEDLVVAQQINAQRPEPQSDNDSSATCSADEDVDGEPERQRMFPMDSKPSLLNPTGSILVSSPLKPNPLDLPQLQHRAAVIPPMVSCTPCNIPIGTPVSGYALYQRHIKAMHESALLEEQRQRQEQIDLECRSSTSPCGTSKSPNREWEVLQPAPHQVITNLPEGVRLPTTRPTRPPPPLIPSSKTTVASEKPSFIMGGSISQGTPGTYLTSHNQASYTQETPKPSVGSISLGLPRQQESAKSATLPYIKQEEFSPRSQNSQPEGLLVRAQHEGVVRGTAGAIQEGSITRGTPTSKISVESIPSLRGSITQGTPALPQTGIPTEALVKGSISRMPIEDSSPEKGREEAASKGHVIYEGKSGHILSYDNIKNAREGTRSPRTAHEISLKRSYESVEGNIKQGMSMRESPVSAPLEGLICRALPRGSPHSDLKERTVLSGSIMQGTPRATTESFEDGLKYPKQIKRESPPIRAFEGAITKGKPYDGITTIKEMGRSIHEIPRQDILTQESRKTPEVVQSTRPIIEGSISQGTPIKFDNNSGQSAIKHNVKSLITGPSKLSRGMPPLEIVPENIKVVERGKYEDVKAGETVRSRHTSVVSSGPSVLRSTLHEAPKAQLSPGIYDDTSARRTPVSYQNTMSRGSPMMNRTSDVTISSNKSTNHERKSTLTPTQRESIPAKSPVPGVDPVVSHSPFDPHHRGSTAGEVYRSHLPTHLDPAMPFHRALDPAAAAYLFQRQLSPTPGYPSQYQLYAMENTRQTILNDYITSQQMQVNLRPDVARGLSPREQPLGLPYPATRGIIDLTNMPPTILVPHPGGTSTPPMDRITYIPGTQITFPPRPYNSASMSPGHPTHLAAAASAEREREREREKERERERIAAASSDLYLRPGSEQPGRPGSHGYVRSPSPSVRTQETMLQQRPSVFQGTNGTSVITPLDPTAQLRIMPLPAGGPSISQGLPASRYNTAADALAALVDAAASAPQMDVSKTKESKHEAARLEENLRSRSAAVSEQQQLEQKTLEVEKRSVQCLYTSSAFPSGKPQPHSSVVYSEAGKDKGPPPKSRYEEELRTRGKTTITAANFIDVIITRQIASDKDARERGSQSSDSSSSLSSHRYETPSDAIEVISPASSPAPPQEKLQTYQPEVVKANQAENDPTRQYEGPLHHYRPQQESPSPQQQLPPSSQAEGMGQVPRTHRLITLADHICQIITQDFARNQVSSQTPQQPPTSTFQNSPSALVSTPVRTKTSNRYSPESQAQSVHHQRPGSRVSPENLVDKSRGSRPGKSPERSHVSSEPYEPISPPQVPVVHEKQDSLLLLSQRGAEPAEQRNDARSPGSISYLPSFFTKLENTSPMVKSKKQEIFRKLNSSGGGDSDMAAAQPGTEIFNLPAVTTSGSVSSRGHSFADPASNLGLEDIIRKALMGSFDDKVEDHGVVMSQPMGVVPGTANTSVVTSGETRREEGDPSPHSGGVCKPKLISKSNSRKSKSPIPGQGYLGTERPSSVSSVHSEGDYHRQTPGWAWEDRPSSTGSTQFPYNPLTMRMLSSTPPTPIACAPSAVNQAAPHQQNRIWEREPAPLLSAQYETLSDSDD
UniProt P11142: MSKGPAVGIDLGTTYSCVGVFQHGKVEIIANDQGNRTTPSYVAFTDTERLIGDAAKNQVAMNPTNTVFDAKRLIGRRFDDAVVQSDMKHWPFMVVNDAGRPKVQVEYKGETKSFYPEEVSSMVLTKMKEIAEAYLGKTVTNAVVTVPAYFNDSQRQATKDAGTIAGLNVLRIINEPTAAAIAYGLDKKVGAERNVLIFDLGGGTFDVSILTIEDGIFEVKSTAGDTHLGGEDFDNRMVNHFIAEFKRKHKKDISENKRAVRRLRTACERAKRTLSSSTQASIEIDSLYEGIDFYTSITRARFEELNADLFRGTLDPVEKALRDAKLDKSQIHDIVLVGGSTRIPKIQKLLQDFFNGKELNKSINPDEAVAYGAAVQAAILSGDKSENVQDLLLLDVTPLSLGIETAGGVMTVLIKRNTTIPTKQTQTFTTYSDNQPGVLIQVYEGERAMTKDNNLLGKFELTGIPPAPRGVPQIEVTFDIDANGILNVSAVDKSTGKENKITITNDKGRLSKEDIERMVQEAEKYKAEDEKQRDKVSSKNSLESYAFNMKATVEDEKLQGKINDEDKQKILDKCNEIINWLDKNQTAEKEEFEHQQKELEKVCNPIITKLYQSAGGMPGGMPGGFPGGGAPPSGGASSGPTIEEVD

Experiments:
[1] = target: Flag-tagged N-CoR (nuclear receptor co-repressor) (UniProt O75376); assay: co-IP; protease-depleted fractionates of H2170 cells incubated with flag-tagged N-CoR (extract of transfected 293T cells) in IP buffer (40 mM Tris-HCl pH 7.4, 150 mM NaCl, 0.5 mM EDTA, 0.75 mM MgCl2, 0.25% NP-40), 4°C; anti-flag M2 affinity gel; blot with Hsc70 antibody
[2] = target: Hsc70 (human (endogenous in H2170)) (UniProt P11142); assay: co-IP; lysates of vehicle or Kaletra treated (5 µM, 96 hours) H2170 cells; Hsc70 antibody and protein G beads, 4°C; blot with N-CoR antibody

| binding [1] | binding [2] | Substance |
| --- | --- | --- |
| binds | – | Hsc70 (from UniProt P11142 1-646) |
| – | binds | Nuclear receptor co-repressor (N-CoR), endogenous in H2170 cells (from UniProt O75376 1-2440) |
